Part of at least one peptide drawing is inferred or uncertain, most often the ends. Where a SMILES comes first, the peptide text is derived from it. Where no end group is shown, it is not given here.
What was measured:
[1] = tested on: human-derived chondrocytes; assay: Expression of aggrecan and COL2A1 (Western blot) in chondrocytes; type: cell-based; details: after 1, 3 and 7 days, FIG. 15 and FIG. 16
[2] = tested on: human-derived chondrocytes; assay: Expression of SOX5, SOX6 and SOX9 (Western blot) in chondrocytes; type: cell-based; details: after 1, 3 and 7 days, FIG. 12 and FIG. 13
[3] = tested on: human-derived chondrocytes; assay: Glycosaminoglycan production, Alcian blue staining; type: cell-based; details: different concentrations, after 7 days, FIG. 4 and FIG. 5
[4] = tested on: human-derived chondrocytes; assay: mRNA expression of ECM regulatory factor SOX9 (PCR) in chondrocytes; type: cell-based; details: after 1, 3 and 7 days, FIG. 9 and FIG. 10
AD-MSC cells [5] = assay: mRNA expression of ECM components (PCR) in AD-MSC; type: cell-based, human; details: adipose-derived mesenchymal stem cells, after 3 and 7 days, Fig. 8
AD-MSC cells [6] = assay: Expression of aggrecan and COL2A1 (Western blot) in AD-MSC; type: cell-based, human; details: adipose-derived mesenchymal stem cells, after 3, 7 and 14 days, FIG. 17
AD-MSC cells [7] = assay: mRNA expression of ECM regulatory factor SOX9 (PCR) in AD-MSC; type: cell-based, human; details: adipose-derived mesenchymal stem cells, after 3 and 7 days, FIG. 11
AD-MSC cells [8] = assay: Expression of SOX5, SOX6 and SOX9 (Western blot) in AD-MSC; type: cell-based, human; details: adipose-derived mesenchymal stem cells, after 3 and 7 days, FIG. 14
[9] = tested on: human-derived chondrocytes; assay: mRNA expression of ECM components (PCR) in chondrocytes; type: cell-based; details: after 1, 3 and 7 days, FIG. 6 and FIG. 7

KRRRKRK [Peptide-1, KRRRKRK]
increased the expression: expression of COL2A1 [1] | expression of aggrecan [1] | expression of SOX5 [2] | expression of SOX6 [2] | expression of SOX9 [2] | expression of COL2A1 (AD-MSC cells [6]) | expression of SOX6 (AD-MSC cells [8]) | expression of SOX9 (AD-MSC cells [8])
induced the production: production of SOX9 (mRNA expression) [4]
increased the mRNA production: mRNA production of ACAN (AD-MSC cells [5]) | mRNA production of COL2A1 (AD-MSC cells [5]) | mRNA production of COL11A (AD-MSC cells [5]) | mRNA production of COMP (AD-MSC cells [5]) | mRNA production of PCP (AD-MSC cells [5]) | mRNA production of ACAN [9] | mRNA production of COL2A1 [9] | mRNA production of COL11A [9] | mRNA production of COMP [9]
promotes the production: production of SOX9 (mRNA expression) (AD-MSC cells [7])
promoted the production: production of glycosaminoglycan [3]

N[C@@H](CCC(=O)O)C(=O)N[C@@H](CC(=O)O)C(=O)N[C@@H](CC(=O)O)C(=O)O [Peptide-2, EDD] (H-Glu-Asp-Asp-OH)
increased the expression: expression of COL2A1 [1] | expression of aggrecan [1] | expression of SOX5 [2] | expression of SOX6 [2] | expression of SOX9 [2]
induced the production: production of SOX9 (mRNA expression) [4]
increased the mRNA production: mRNA production of ACAN [9] | mRNA production of COL2A1 [9] | mRNA production of COL11A [9] | mRNA production of COMP [9]
promoted the production: production of glycosaminoglycan [3]

From patent EP4631962A1, “PEPTIDE FOR CARTILAGE REGENERATION, AND USES THEREOF” (Caregen Co., Ltd., priority 2022, dated 2024)
